Measurements: PMC12482080
No constants are given. Whether binding was seen depends on the method and setting. Binding seen in cells or lysates may run through a third protein. Some binding calls cover weakened binding; strength is not graded here.

Chains of the proteins cited; added tags and fusions are not shown.
UniProt P35222: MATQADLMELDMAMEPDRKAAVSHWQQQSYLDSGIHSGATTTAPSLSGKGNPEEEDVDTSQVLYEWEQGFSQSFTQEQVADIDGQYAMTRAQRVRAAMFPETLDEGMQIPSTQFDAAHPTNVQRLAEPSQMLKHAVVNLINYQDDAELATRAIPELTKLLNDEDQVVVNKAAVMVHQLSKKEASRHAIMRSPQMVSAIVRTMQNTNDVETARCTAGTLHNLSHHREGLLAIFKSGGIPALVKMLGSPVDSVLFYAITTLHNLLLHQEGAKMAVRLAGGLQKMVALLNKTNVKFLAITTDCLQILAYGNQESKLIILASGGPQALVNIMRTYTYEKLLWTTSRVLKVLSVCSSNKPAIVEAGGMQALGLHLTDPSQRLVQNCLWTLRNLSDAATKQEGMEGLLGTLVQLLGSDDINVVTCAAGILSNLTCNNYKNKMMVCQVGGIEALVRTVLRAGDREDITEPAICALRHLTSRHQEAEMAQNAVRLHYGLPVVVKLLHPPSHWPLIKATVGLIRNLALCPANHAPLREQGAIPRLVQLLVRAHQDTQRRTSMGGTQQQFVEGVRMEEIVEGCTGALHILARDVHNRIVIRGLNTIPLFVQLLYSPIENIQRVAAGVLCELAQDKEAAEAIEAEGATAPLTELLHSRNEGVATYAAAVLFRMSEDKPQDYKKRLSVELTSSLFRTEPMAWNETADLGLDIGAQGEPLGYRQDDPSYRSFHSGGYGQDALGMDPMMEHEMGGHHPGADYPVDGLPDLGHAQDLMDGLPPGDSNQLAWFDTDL

Biological target: β-catenin (UniProt P35222)
Experiment: co-IP; cell lysate in IP lysis buffer (1% NP-40, 50 mM Tris-HCl pH 8.0, 150 mM NaCl, protease and phosphatase inhibitors), overnight at 4 °C; methods describe both HA/Flag beads for transfected proteins and primary antibody with Protein A/G beads for endogenous proteins; which was used for Fig. 5A, the bait and the cells are not told

binding: binds
B1: EMSY (a transcriptional regulator interacting with BRCA2) (protein, UniProt Q7Z589 1-1322)
chain: MPVVWPTLLDLSRDECKRILRKLELEAYAGVISALRAQGDLTKEKKDLLGELSKVLSISTERHRAEVRRAVNDERLTTIAHNMSGPNSSSEWSIEGRRLVPLMPRLVPQTAFTVTANAVANAAIQHNASLPVPAETGSKEVVCYSYTSTTSTPTSTPVPSGSIATVKSPRPASPASNVVVLPSGSTVYVKSVSCSDEDEKPRKRRRTNSSSSSPVVLKEVPKAVVPVSKTITVPVSGSPKMSNIMQSIANSLPPHMSPVKITFTKPSTQTTNTTTQKVIIVTTSPSSTFVPNILSKSHNYAAVTKLVPTSVIASTTQKPPVVITASQSSLVSNSSSGSSSSTPSPIPNTVAVTAVVSSTPSVVMSTVAQGVSTSAIKMASTRLPSPKSLVSAPTQILAQFPKQHQQSPKQQLYQVQQQTQQQVAQPSPVSHQQQPQQSPLPPGIKPTIQIKQESGVKIITQQVQPSKILPKPVTATLPTSSNSPIMVVSSNGAIMTTKLVTTPTGTQATYTRPTVSPSIGRMAATPGAATYVKTTSGSIITVVPKSLATLGGKIISSNIVSGTTTKITTIPMTSKPNVIVVQKTTGKGTTIQGLPGKNVVTTLLNAGGEKTIQTVPTGAKPAILTATRPITKMIVTQPKGIGSTVQPAAKIIPTKIVYGQQGKTQVLIKPKPVTFQATVVSEQTRQLVTETLQQASRVAEAGNSSIQEGKEEPQNYTDSSSSSTESSQSSQDSQPVVHVIASRRQDWSEHEIAMETSPTIIYQDVSSESQSATSTIKALLELQQTTVKEKLESKPRQPTIDLSQMAVPIQMTQEKRHSPESPSIAVVESELVAEYITTERTDEGTEVAFPLLVSHRSQPQQPSQPQRTLLQHVAQSQTATQTSVVVKSIPASSPGAITHIMQQALSSHTAFTKHSEELGTEEGEVEEMDTLDPQTGLFYRSALTQSQSAKQQKLSQPPLEQTQLQVKTLQCFQTKQKQTIHLQADQLQHKLPQMPQLSIRHQKLTPLQQEQAQPKPDVQHTQHPMVAKDRQLPTLMAQPPQTVVQVLAVKTTQQLPKLQQAPNQPKIYVQPQTPQSQMSLPASSEKQTASQVEQPIITQGSSVTKITFEGRQPPTVTKITGGSSVPKLTSPVTSISPIQASEKTAVSDILKMSLMEAQIDTNVEHMIVDPPKKALATSMLTGEAGSLPSTHMVVAGMANSTPQQQKCRESCSSPSTVGSSLTTRKIDPPAVPATGQFMRIQNVGQKKAEESPAEIIIQAIPQYAIPCHSSSNVVVEPSGLLELNNFTSQQLDDEETAMEQDIDSSTEDGTEPSPSQSSAERS
